These are yes or no findings as the source states them, for the method shown. Binding can be weak; no strength is given.
Molecular target: T1, PsaG (Photosystem I subunit of C. reinhardtii) (C. reinhardtii (endogenous in strain TSP4xpgr5)) (UniProt P14224)
T1 sequence: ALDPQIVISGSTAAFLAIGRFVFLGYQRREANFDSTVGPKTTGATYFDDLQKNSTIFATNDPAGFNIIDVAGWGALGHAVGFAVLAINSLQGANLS
Assay: cryo-EM structure; PSI dimer found among the particles of purified TSP4 PSI (5707 particles); 17.1 Å 3-dimensional map, TSP4–10LHC and TSP4–8LHC models placed into it; sample in 20 mM Tricine pH 8.0; both purified

- binding: binds
Substance: Lhca2 (light-harvesting complex I protein of C. reinhardtii PSI)

Reference: PMC8660910
